Experiment [1] deals with T1, ZED1 (Arabidopsis thaliana) (UniProt Q8LGB6).
T1 sequence: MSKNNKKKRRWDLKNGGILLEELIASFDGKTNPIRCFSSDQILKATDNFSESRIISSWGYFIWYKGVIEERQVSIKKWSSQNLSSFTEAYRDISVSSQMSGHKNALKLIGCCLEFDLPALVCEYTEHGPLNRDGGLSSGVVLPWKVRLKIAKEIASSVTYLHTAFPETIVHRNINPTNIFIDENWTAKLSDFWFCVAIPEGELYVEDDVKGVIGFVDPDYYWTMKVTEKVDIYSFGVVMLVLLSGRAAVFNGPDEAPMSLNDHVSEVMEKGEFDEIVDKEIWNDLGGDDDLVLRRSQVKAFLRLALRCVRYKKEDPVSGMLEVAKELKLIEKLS
Kind of experiment: two-hybrid; yeast three-hybrid on X-gal reporter plates; ZED1 in pEG202, PBL kinase in pJG4-5; HopZ1a integrated at the yeast HO locus.

Experiment [2] concerns the target T1, ZED1 (Arabidopsis thaliana). Put plainly: two-hybrid; yeast three-hybrid on X-gal reporter plates; ZED1 in pEG202, PBL kinase in pJG4-5; HopX1i integrated at the yeast HO locus.
For experiment [3] the target is unchanged. Put plainly: two-hybrid; quantitative liquid culture beta-galactosidase assay (ONPG); ZED1 in pEG202, SZE1 in pJG4-5; without effector or with HopZ1a, HopX1i, HopX1i C198A, HopX1d or HopX1b (HO locus integration or pBA350V).
For experiment [4] the target is unchanged. Put plainly: two-hybrid; ZED1 in pEG202, PBL kinase in pJG4-5, lacZ reporter pSH18-34; diploid yeast on X-gal reporter plates, 30°C, monitored 3 days; without effector, or with HopX1i or HopZ1a integrated at the HO locus (yeast three-hybrid).

Results are given in words; binding and its absence hold for the method and conditions named. Some binding calls cover weakened binding; strength is not graded here.

B1: PBL15 (protein, UniProt Q9SY91 1-424)
chain: MRDSSTTASTKSSPLWKPFASNCCSVDDQTVFGNLSRCRPSRSEFSKNHLGPLPSFRRLSFADLSRSSSARINEDLAQTLGADLVDFQMCELKMITQSFSGNYLLGEGGFGKVYKGYVDDYLRQSLKAQPVAVKLLDIEGLQGHREWLSEVIFLGQLKHPNLVKLIGYCCEEEERVLIYEFMPRGSLENHLFRRISLSLPWATRLKIAVAAAKGLAFLHDLESPIIYRDFKTSNILLDSDFTAKLSDFGLAKMGPEGSKSHVTTRVMGTYGYAAPEYVSTGHLTTKSDVYSYGVVLLELLTGRRATEKSRPKNQQNIIDWSKPYLTSSRRLRCVMDPRLAGQYSVKAAKDTALLALQCVSPNPKDRPKMLAVVEALESLIHYKDMAVSSGHWPLSPKSQGGKVSPKVRGDHRSGRKSAPGSLRS
Take B1: the binding result in experiment [1] is listed as “binds”; in experiment [2], “no binding (condition: with HopX1i (without HopZ1a))”.

B2: SZE1 (protein, UniProt Q8L617 1-313)
chain: MGNCLSASTLPTEPNAPKSVEEGVKVFTVADLKKATNDFGNQMELGESLGYINPKTLSPAKKGVGMAVAVKKIYLANEQAFQDWLVDVEFLRHNSHPSLVKLIGYCYDRDMLFIVSEYFPNGSLGSYISRDSRPKSLPWETRLKISIGAAQCLAFLHSRKQAGLYRRYLTASKILLDSDFNARVSYFGKPKVSLDELVYTIGFSNVAPRYQYPPPEYILSGMSNMAGDVYSFGVILLKMLTGLGKDLTISAKREIKNKKYNIVEMIDPDLKNSYPLEAGRLMCELIKQCLEVDPKMRPTMQEVLDNLNAIAQI
In the case of B2, the binding entry in experiment [3] and in experiment [4] was “binds” throughout.

Values taken from article PMC7475706.
